Some of the results follow.
Each sequence was assayed against T1, OsSMF1 (Oryza sativa, UniProt Q6ZLB0 1-436) (assay: protein-binding microarray (RPBM); PBS, 2% BSA, 51.3 ng/ul salmon testes DNA, 50 uM zinc acetate, 200 nM TF, 25 C, 1 h; high values mean tight binding). Details: protein: recombinant; tags: N-terminal polyhistidine and DsRed monomer fusion (pET32a); chain copies: 2; label: CyDye5-dUTP incorporated in the synthesized complementary strand; 3' TTTTT single-stranded linker to array surface; dsDNA, one strand shown.
T1 sequence: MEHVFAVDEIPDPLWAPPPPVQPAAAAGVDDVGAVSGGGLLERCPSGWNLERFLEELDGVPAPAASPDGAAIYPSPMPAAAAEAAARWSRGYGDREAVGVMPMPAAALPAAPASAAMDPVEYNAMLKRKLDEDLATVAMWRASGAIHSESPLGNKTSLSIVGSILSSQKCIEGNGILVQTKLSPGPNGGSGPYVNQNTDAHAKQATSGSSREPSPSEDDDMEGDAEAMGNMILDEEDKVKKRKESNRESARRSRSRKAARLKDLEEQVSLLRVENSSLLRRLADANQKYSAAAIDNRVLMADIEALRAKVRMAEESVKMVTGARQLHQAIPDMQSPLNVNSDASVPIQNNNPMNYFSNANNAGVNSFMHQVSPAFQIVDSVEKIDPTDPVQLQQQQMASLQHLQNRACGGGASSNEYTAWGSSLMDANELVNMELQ
How it was run: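 Transcription factors were made in E. coli BL21-CodonPlus as N-terminal fusions to a polyhistidine tag and DsRed, then purified on Ni–NTA. After primer extension with Cy5-dUTP and blocking with 2% BSA, a custom Agilent array was exposed for 1 h at 25 °C to 200 nM protein in PBS, 2% BSA, salmon testes DNA and 50 µM zinc acetate. Washed arrays were scanned on an Axon 4000B, and the binding signal is per-feature fluorescence intensity in arbitrary units.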

Sequence	binding signal
GCCGATGACGCGGCGCCAGCGCCACCGCCTGCACGCGGCCCGGAGTCACCTAGTGCAG	7430 fluorescence intensity (a.u.)
TGGAGAATGCCAACTTTGCACATTAAACGCTTGCATGTTTCGGAGTCACCTAGTGCAG	3140 fluorescence intensity (a.u.)
CTAGCCAAGAAGCATCGATCAGCTGAGTGAGCTGGCAAGCCGGAGTCACCTAGTGCAG	5940 fluorescence intensity (a.u.)
AAAAGATAAGTCACGCATAAAGTATTCATCATGTTTTATCCGGAGTCACCTAGTGCAG	3600 fluorescence intensity (a.u.)
CAATTTGGTAGCCCTTGAGTCTTCCCTGTCGGCAAATTGACGGAGTCACCTAGTGCAG	30100 fluorescence intensity (a.u.)
ACAAATCCAACACAAATTCCATCTCAGCATTTTCTCCAGTCGGAGTCACCTAGTGCAG	5250 fluorescence intensity (a.u.)
CCTCTATTTTCCATCTCCAACTATGTCAGCAAAAGAAATCCGGAGTCACCTAGTGCAG	4190 fluorescence intensity (a.u.)
GAGGTCTGCGTATTTGACGAGTCACCGGAGGTCTTCTCCACGGAGTCACCTAGTGCAG	6190 fluorescence intensity (a.u.)
GGGCAATTTCGCATTGGTGCAGGTTCCACATCACGATGCCCGGAGTCACCTAGTGCAG	4200 fluorescence intensity (a.u.)
GCACGCTGCATGCACGCATGCATGAAACTCTCATCTGACACGGAGTCACCTAGTGCAG	3780 fluorescence intensity (a.u.)
AGGATGCCCATTGTCATTGATATGGTATGGTGATGAAGAGCGGAGTCACCTAGTGCAG	4170 fluorescence intensity (a.u.)
GAGGGAGTACACGTGACATATCCACATTTTCATCATCCTTCGGAGTCACCTAGTGCAG	6720 fluorescence intensity (a.u.)
CACGTCAACTGACGCTAAATGCTGTGTCACCGCGGATGGGCGGAGTCACCTAGTGCAG	5620 fluorescence intensity (a.u.)
GATGAGGCTTTCTCTTGCCACGCAGGACAGCATGTGTTTGCGGAGTCACCTAGTGCAG	7390 fluorescence intensity (a.u.)
TTTTCAATGGCCAGTTGTCCTTAGTTGATATGTATGTAAACGGAGTCACCTAGTGCAG	6340 fluorescence intensity (a.u.)
AGGCTCTAACCAGCGGTGCAATGCCGTGTCACCGAGCCTACGGAGTCACCTAGTGCAG	6540 fluorescence intensity (a.u.)
CTTTAAAAGCTCGTCATCTTTCTCACACTTTTGTAGTTGTCGGAGTCACCTAGTGCAG	3150 fluorescence intensity (a.u.)
TCAATCCCGTTCAGGCCCATGGGCCGCACGCGACTGTAATCGGAGTCACCTAGTGCAG	3210 fluorescence intensity (a.u.)
CTGAATCTATGGTCATGTGTGGCCTAACCCAAACCCGTCTCGGAGTCACCTAGTGCAG	14700 fluorescence intensity (a.u.)
GAAGCCCAAGTCGAGCCGAGCCGCATGGGCGGCGCCGCTGCGGAGTCACCTAGTGCAG	19800 fluorescence intensity (a.u.)
TAATTGTGATCAAAATTGTAACAAATGCACGGTCATTAAGCGGAGTCACCTAGTGCAG	3320 fluorescence intensity (a.u.)

Reprinted at random: 2 records from the list
Sequence	binding signal
CACGTCAACTGACGCTAAATGCTGTGTCACCGCGGATGGGCGGAGTCACCTAGTGCAG	5620 fluorescence intensity (a.u.)
GATGAGGCTTTCTCTTGCCACGCAGGACAGCATGTGTTTGCGGAGTCACCTAGTGCAG	7390 fluorescence intensity (a.u.)

(list continues)

Sequence	binding signal
GCTCACGTCGTTCCAGGTCACCGTGCTCGGCGACGGCGCCCGGAGTCACCTAGTGCAG	4540 fluorescence intensity (a.u.)
CTGGCCACGTGGTCCTCGGTGGCGGCTCCGAGAAGCCCGACGGAGTCACCTAGTGCAG	9530 fluorescence intensity (a.u.)
TTTATTATTAGTTTACGTTTAATACTTCTAATTAGTATAACGGAGTCACCTAGTGCAG	3240 fluorescence intensity (a.u.)
GATCAGATTAAAGGGGATCAGCTCACTTCTGATATTTCAGCGGAGTCACCTAGTGCAG	30600 fluorescence intensity (a.u.)
GTTGGCCACTAGCAATGGCATTGTCGGTGAGTTTGGAGCTCGGAGTCACCTAGTGCAG	3720 fluorescence intensity (a.u.)
TACTAATTTAATCCCCTTTGATCTGCTGACTGGTTTACTACGGAGTCACCTAGTGCAG	5140 fluorescence intensity (a.u.)
TCGCGATCTCCGTGTCCCGCCCGCCGTCCATCGACCTCTGCGGAGTCACCTAGTGCAG	3550 fluorescence intensity (a.u.)
CTTTTATTTTATAAAGTTAGAATCCACGTATAACAGACCTCGGAGTCACCTAGTGCAG	4850 fluorescence intensity (a.u.)
CACCAGCATTAGCTGGCAAAACAGATTGATGTTATACAAGCGGAGTCACCTAGTGCAG	3170 fluorescence intensity (a.u.)
CCTTGCCGCCGGCCAATTTATTGACTCACCGAGAAGTTTGCGGAGTCACCTAGTGCAG	5600 fluorescence intensity (a.u.)
GGATTTGGCTGCTGCATCACTCAGTTTACTGTAGTCTGCACGGAGTCACCTAGTGCAG	3580 fluorescence intensity (a.u.)
CATGGTGTGCGTGTACGTTCATGTTGTGACACGCTATATACGGAGTCACCTAGTGCAG	5510 fluorescence intensity (a.u.)
AGGTGTGGGCCCAACAGATCACATCCTAGTCACCCGGTTGCGGAGTCACCTAGTGCAG	9790 fluorescence intensity (a.u.)
CGCTCAGAGATGGGCCGACCAAGTCAATAGCCAGCAGTGACGGAGTCACCTAGTGCAG	4590 fluorescence intensity (a.u.)
CAATATGTGATGAACTGATGATGTATGTCACTATGTCAGTCGGAGTCACCTAGTGCAG	6250 fluorescence intensity (a.u.)
ATTATCCCAATCGATGTCGAGATGTTTCCGTGTGTATTCACGGAGTCACCTAGTGCAG	4030 fluorescence intensity (a.u.)
CTCTGACATGACGGGCCCACATGTCGGCCTCTCGCCTCACCGGAGTCACCTAGTGCAG	4110 fluorescence intensity (a.u.)
ACTAGGATCATCCAACGCGTACTGCCACTTTCCAGATCGGCGGAGTCACCTAGTGCAG	19700 fluorescence intensity (a.u.)
CATCTTTTCTCTCCTTCCTCACCTGGCGTGGCGTCGCTCACGGAGTCACCTAGTGCAG	3380 fluorescence intensity (a.u.)
GCTGTTCCAGCCTAGAGGCAGAGCAGCAGCAGCCGTTGTCCGGAGTCACCTAGTGCAG	38900 fluorescence intensity (a.u.)
TATATGTCCAACGCATAGGAGGTTCCAAGCTAGCATAACCCGGAGTCACCTAGTGCAG	3140 fluorescence intensity (a.u.)
